Measured values published in the supplement of paper PMC6078165.

Tested on: MDAMB436
Experiment: relative JC-1 red fluorescence (viability) vs pre-drug, coculture with fibroblast (fraction); higher = more viable cancer cells
Settings: 0.1 µM
Experimental: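 JC-1 labelled TNBC cells cocultured 1:1 (1,500 cells each) with CellTrace Violet stained primary or stromal fibroblasts in 384-well plates in FluoroBrite medium, treated with one of 42 anticancer drugs at 0.1, 1, 10 or 100 uM. JC-1 red fluorescence (mitochondrial integrity in cancer cells only) was read by plate reader every 8 h for 72 h. Values are normalised to each well's pre-drug value. The stock of one drug was tenfold lower, so its dose labels may be too high.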

CO[C@@]12[C@H](COC(N)=O)C3=C(C(=O)C(C)=C(N)C3=O)N1C[C@@H]1N[C@@H]12 [Mitomycin C]
relative JC-1 red fluorescence
Settings | 8 h | 16 h | 24 h | 32 h | 40 h | 48 h | 56 h | 64 h | 72 h
coculture fibroblast: C12385 | 0.8276 | 0.706 | 0.653 | 0.578 | 0.522 | 0.502 | 0.473 | 0.453 | 0.446
coculture fibroblast: H6013 | 0.799 | 0.683 | 0.649 | 0.635 | 0.608 | 0.619 | 0.586 | 0.563 | 0.513
coculture fibroblast: H6019 | 0.76 | 0.685 | 0.662 | 0.593 | 0.547 | 0.519 | 0.469 | 0.432 | 0.401
coculture fibroblast: H6076 | 0.782 | 0.667 | 0.636 | 0.58409 | 0.5474 | 0.515 | 0.507 | 0.495 | 0.482
coculture fibroblast: H6231 | 0.827 | 0.737 | 0.688 | 0.615 | 0.575 | 0.534 | 0.516 | 0.484 | 0.46
coculture fibroblast: HADF | 0.826 | 0.7517 | 0.706 | 0.675 | 0.659 | 0.663 | 0.611 | 0.601 | 0.553
coculture fibroblast: HCFa | 0.77 | 0.646 | 0.5988 | 0.567 | 0.53237 | 0.543 | 0.479 | 0.459 | 0.41
coculture fibroblast: HCPF | 0.7726 | 0.683 | 0.638 | 0.577 | 0.554 | 0.519 | 0.494 | 0.481 | 0.457
coculture fibroblast: HHSteC | 0.87 | 0.798 | 0.784 | 0.764 | 0.753 | 0.765 | 0.699 | 0.681 | 0.621
coculture fibroblast: HMF | 0.792 | 0.6752 | 0.617 | 0.574 | 0.545 | 0.512 | 0.503 | 0.484 | 0.484
coculture fibroblast: HPFa | 0.8395 | 0.7402 | 0.7204 | 0.6728 | 0.65879 | 0.674 | 0.5961 | 0.567 | 0.5
coculture fibroblast: HUF | 0.8155 | 0.701 | 0.655 | 0.574 | 0.515 | 0.486 | 0.463 | 0.448 | 0.437
coculture fibroblast: Hs5 | 0.796 | 0.723 | 0.699 | 0.65 | 0.635 | 0.597 | 0.61 | 0.575 | 0.568
coculture fibroblast: Hs27A | 0.812 | 0.742 | 0.702 | 0.6731 | 0.644 | 0.684 | 0.62 | 0.616 | 0.563
coculture fibroblast: Hs343T | 0.807 | 0.693 | 0.634 | 0.588 | 0.556 | 0.521 | 0.498 | 0.487 | 0.479
coculture fibroblast: WS1 | 0.796 | 0.6867 | 0.629 | 0.549 | 0.497 | 0.464 | 0.426 | 0.387 | 0.367

Values are relative to the signal before dosing, not to a vehicle control; the signal also falls without drug.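 Labels refer to human fibroblasts, largely primary: uterine (C12385, HUF), lung (H6013), bone (Hs27A), adrenal (HADF), skin (WS1), plus mammary HMF and breast cancer-associated Hs343T. Cancer lines are basal-like or mesenchymal-like triple-negative breast cancer. The paper counts as hits responses shifting over 3x the replicate standard deviation. The tissue of the other fibroblasts is not given here.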
